Reference: PubChem BioAssay AID1159578 (Peter MacCallum Cancer Centre, 2015)

- Assay: 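Genome-wide hunt for genes controlling movement of lymphatic endothelial cells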 (primary screen)
- Cells: human lymphatic endothelial cells
- Reagents: siRNA pool against human genes, 40 nM
- Time to read-out: 48 h after transfection
- Detection: 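High-content imaging of dye-stained cells in a scratch assay measures filled wound area and nuclei per well; duplicate means given as ratio to mock and robust z-score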
- Reading the numbers: migration robust z-score: higher = faster migration into the scratch; migration relative to mock: higher = more scratch area covered than mock; nuclei per well: higher = more cells in the well
- Rule for the call: 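Pools averaging fewer than 3300 nuclei are never called; remaining pools count as changed when migration robust z lies outside -2 to 2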
- Meaning of the calls: active = migration changed; inactive = no migration change, or too few cells
The deposit covers about 18,000 reagents; below is an unselected part. In the full data, about 1,030 (5.7%) are marked active. 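Inactive calls also include pools with fewer than 3300 nuclei, whose migration was not assessed.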 The raw values are shown without normalisation. A number with no mark means an inactive call. No sequences are given here.

gene symbol	migration robust z-score	migration class with cell-count check	migration relative to mock	nuclei per well, duplicate mean
NFS1	-0.57	migration z between -2 and 2; enough cells	0.7	5420
SNRNP48	0.52	migration z between -2 and 2; enough cells	1.02	5900
MAP3K1	-0.86	migration z between -2 and 2; enough cells	0.64	6457
UQCRC1	-0.16	migration z between -2 and 2; enough cells	0.77	6437
RERE	-0.62	migration z between -2 and 2; enough cells	0.68	4736
STK16	-0.57	migration z between -2 and 2; enough cells	0.7	5004
CFAP206	0.92	migration z between -2 and 2; enough cells	1.12	5766
VPS35	1.08	migration z between -2 and 2; enough cells	1.17	6468
MARK2	-0.99	under 3300 nuclei; migration not judged	0.62	2916
BORA	0.1	migration z between -2 and 2; enough cells	0.92	5596
FOXE1	-0.16	migration z between -2 and 2; enough cells	0.78	5537
CENPV	0.28	migration z between -2 and 2; enough cells	0.96	6002
MX1	1.5	migration z between -2 and 2; enough cells	1.09	4783
ABCG5	-3.01 (active)	migration z below -2; enough cells	0.22	3520
FAM216B	0.22	migration z between -2 and 2; enough cells	0.94	6258
EIF1AY	1.04	migration z between -2 and 2; enough cells	1.01	5752
TRIM14	0.29	migration z between -2 and 2; enough cells	0.86	4778
CD177	1.58	migration z between -2 and 2; enough cells	1.29	7146
ACLY	0.02	migration z between -2 and 2; enough cells	0.89	6778
EPHB1	-1.12	migration z between -2 and 2; enough cells	0.59	4880
PRXL2A	0.71	migration z between -2 and 2; enough cells	1.07	5700
NUDCD3	-0.34	migration z between -2 and 2; enough cells	0.8	6858
SHF	1.12	migration z between -2 and 2; enough cells	1.18	4604
SKIC3	-0.46	migration z between -2 and 2; enough cells	0.76	6354
FOXN1	-0.34	migration z between -2 and 2; enough cells	0.74	6062
TEX264	1.06	migration z between -2 and 2; enough cells	1.16	7045
RARG	0.16	migration z between -2 and 2; enough cells	0.84	5127
PTPN1	-0.13	migration z between -2 and 2; enough cells	0.78	6110
SPIB	1.14	migration z between -2 and 2; enough cells	1.02	5649
SETD3	0.96	migration z between -2 and 2; enough cells	1.14	5774
APOBEC3G	-0.03	migration z between -2 and 2; enough cells	0.8	4107
RNF128	1.43	migration z between -2 and 2; enough cells	1.08	4612
POU6F2	0.8	migration z between -2 and 2; enough cells	1.1	4740
OTOP1	-0.12	migration z between -2 and 2; enough cells	0.86	5964
MOB1B	1.12	migration z between -2 and 2; enough cells	1.17	6698
DNAJC1	-0.42	migration z between -2 and 2; enough cells	0.77	4720
PHF8	0.8	migration z between -2 and 2; enough cells	0.96	6428
STK35	-5.81	under 3300 nuclei; migration not judged	-0.32	2978
RNF152	0.2	migration z between -2 and 2; enough cells	0.84	6120
TMEM33	1.41	migration z between -2 and 2; enough cells	1.25	4602
GAMT	0.16	migration z between -2 and 2; enough cells	0.84	6285
LRRN1	0.64	migration z between -2 and 2; enough cells	1.05	6424
MCC	-2.26 (active)	migration z below -2; enough cells	0.3	5010
PPP4R3A	-1.1	migration z between -2 and 2; enough cells	0.6	6754
BRWD3	-1.78	migration z between -2 and 2; enough cells	0.43	5914
INSYN1	-0.16	migration z between -2 and 2; enough cells	0.84	5382
BEX5	0	migration z between -2 and 2; enough cells	0.88	5434
KCNA1	0.94	migration z between -2 and 2; enough cells	0.99	4381
BRAF	-3.4	under 3300 nuclei; migration not judged	0.15	3183
OR5B17	0.48	migration z between -2 and 2; enough cells	1	6058
ABCD4	-0.23	migration z between -2 and 2; enough cells	0.76	5757
ZNF219	0.6	migration z between -2 and 2; enough cells	1.04	6080
PHYKPL	0.83	migration z between -2 and 2; enough cells	0.96	4648
ENTPD2	-0.4	migration z between -2 and 2; enough cells	0.78	3626
XKRYP7	-0.52	migration z between -2 and 2; enough cells	0.75	4556
H2BC17	-4.28	under 3300 nuclei; migration not judged	-0.22	2240
MAP7	-0.16	migration z between -2 and 2; enough cells	0.84	6366

Laid out differently: 7 of the entries above.
SKIC3
- migration robust z-score: -0.46
- migration class with cell-count check: migration z between -2 and 2; enough cells
- migration relative to mock: 0.76
- nuclei per well, duplicate mean: 6354

FOXN1
- migration robust z-score: -0.34
- migration class with cell-count check: migration z between -2 and 2; enough cells
- migration relative to mock: 0.74
- nuclei per well, duplicate mean: 6062

TEX264
- migration robust z-score: 1.06
- migration class with cell-count check: migration z between -2 and 2; enough cells
- migration relative to mock: 1.16
- nuclei per well, duplicate mean: 7045

RARG
- migration robust z-score: 0.16
- migration class with cell-count check: migration z between -2 and 2; enough cells
- migration relative to mock: 0.84
- nuclei per well, duplicate mean: 5127

PTPN1
- migration robust z-score: -0.13
- migration class with cell-count check: migration z between -2 and 2; enough cells
- migration relative to mock: 0.78
- nuclei per well, duplicate mean: 6110

SPIB
- migration robust z-score: 1.14
- migration class with cell-count check: migration z between -2 and 2; enough cells
- migration relative to mock: 1.02
- nuclei per well, duplicate mean: 5649

SETD3
- migration robust z-score: 0.96
- migration class with cell-count check: migration z between -2 and 2; enough cells
- migration relative to mock: 1.14
- nuclei per well, duplicate mean: 5774
